In PubChem BioAssay AID1487 (National Center for Advancing Translational Sciences (NCATS), 2009):
Among all 200,000 compounds or so, about 25 (0.01%) were called active. Inconclusive results, whose numbers are uncertain, are shown with a selection of clear calls. Calls come from the whole dose curve; as a rule, active = well fitted inhibition curve with a large enough effect in the signal ratio, with a control signal flat (not every such curve was filed as active); inconclusive = small, poorly fitted or top-dose-only effect, or effect the other way, or a change in a side signal; inactive = flat fitted curve, though single readings scatter; the % refers to the signal ratio. A potency beside an inconclusive call is a rough fit, not a confirmed value.

Experiment: qHTS Assay for Modulators of Lamin A Splicing
Details: HeLa LMNA splicing GFP/RFP minigene ratio, 48 h; ratio change, negative = inhibition: at 46.1 µM (top of the series) unless noted
Source text: NCGC Assay Overview: Hutchinson-Gilford Progeria Syndrome (HGPS) is a pediatric premature aging disease caused by a spontaneous mutation in the lamin A/C (LMNA) gene. The mutation activates a cryptic splice site in the LMNA pre-mRNA which results in production of a pre-lamin A protein that cannot be processed properly. The mutant protein accumulates in the nucleus and negatively affects numerous cellular functions. Correction of the splicing defect in HGPS patient cells using a targeted oligonucleotide (exo11) leads to reversal of the cellular disease phenotypes. To identify small molecule modulators of aberrant LMNA splicing, a homogenous assay was constructed in HeLa cells that used a GFP containing minigene to report on correction of aberrant splicing in lamin A and a RFP (DsRed2) to report on cell viability, uniformity and nonspecific effects on the assay signal. This assay was adapted to laser-scanning microplate cytometry (Acumen, TTP Labtech) where miniaturization of the assay to a 1,536-well plate format was possible. References: Bowen, W. P.; Wylie, P. G. Application of Laser-Scanning Fluorescence Microplate Cytometry in High Content Screening. Assay Drug Dev Technol 2006;4:209-221. Scaffidi P, Misteli T. Reversal of the cellular phenotype in the premature aging disease Hutchinson-Gilford progeria syndrome. Nat.
NCGC Assay Protocol Summary: Reagents/Controls: Stable clones expressing DsRed2 and lamin A-EGFP were generated by Cell and Molecular Technologies in S3 HeLa cells. HeLa cells were prepared for the assay when they were 70-90% confluent. The cells were counted and resuspended in Opti-MEM I (no phenol red; Gibco), 2% FBS, 1% penicillin/ streptomycin (Gibco) at concentration of 120 cells/uL concentration. The suspension was passed through a Falcon basket filter with pore size 40um (Beckton Dickson). Control titrations: column […] 1536-well plate contained a sixteen point titration (1:2 dilutions) in duplicate of ancitabine (Sigma: A8598) beginning at 40 uM final concentration. Column 2 contained a sixteen point titration (1:2 dilutions) of cycloheximide beginning at 1.4 mM final concentration. Column 3 contained ancitabine at 40 uM and column 4 contained was the vehicle control (0.5% DMSO final concentration). Assay Steps: 5 uL of HeLa cells were plated in Aurora LoBase black clear bottom (cyclic-olefin polymer) 1536-well plates at a final density of 600 cells/well. Controls and library compounds were added with a 1536-well pin array using the Kalypsys pin-tool. The plates were then incubated for 48 hrs in a cell-culture incubator (37 °C; 5% CO2, 98% humidity). Following incubation the plates were read on the Acumen Explorer using the 488 nm laser. Data was collected on objects between 10 and 100 um in size. Cell objects were defined by a 15 um width x 10 um depth filter. The ratio of the total object intensity in PMT1 (500-530 nm emission; GFP) over PMT3 (575-640 nm emission; RFP) was calculated for analysis. Keywords: NIH Roadmap, MLSCN, MLI, MLSMR, qHTS, NCGC, lamin A, Progeria, RNA splicing.
% is set by controls: 0 for no effect and ±100 for the full control effect; potency is the fitted concentration of half-maximal effect.

SMILES	ratio change, negative = inhibition	Potency
Cc1ccc(-c2nnn3c2nc(NCCc2ccc(S(N)(=O)=O)cc2)c2ccccc23)cc1	inconclusive: -14.3%	
COC(=O)c1ccc(NS(=O)(=O)c2ccc3[nH]c4c(c3c2)CCCC4)cc1	inconclusive: -27.8% [at 46 µM]	
CC(c1ccccc1)C(Cc1nc2ccccc2[nH]1)c1nc2ccccc2[nH]1 (stereo unspecified)	inconclusive: -18.7% [at 46 µM]	
Clc1ccccc1CSc1cc2c(nn1)-c1ccccc1CC2	inconclusive: -16.7%	
O=C(CN1CCCN(Cc2ccc(F)cc2)S1(=O)=O)Nc1ccc2c(c1)OCCO2	inactive	
CN(C)/C=C1/Oc2c(ccc3ccccc23)C1=O	inconclusive: 17.7% [at 46 µM]	
COc1cc2c(cc1OC)C(c1ccccc1)CN(C)CC2 (stereo unspecified)	inactive	
Cc1ccc(NC(=O)CN2C(=O)S/C(=C/c3ccc(-c4cc(C(=O)O)ccc4C)o3)C2=O)cc1C	inactive	
COc1ccc(OC)c2sc(NC(=O)C3CC3)nc12	inconclusive: -30.2%	
Clc1ccc2c(N/N=C/c3ccccc3Br)ccnc2c1	inconclusive: -0.0358%	
CS(=O)(=O)Nc1cccc(-c2nc(NC3CC3)c3ccccc3n2)c1	inconclusive: -2.28%	
C=CCc1ccc(OCC(O)CO)c(OC)c1 (stereo unspecified)	inactive	
O=c1c(Cl)c(NC2CC2)cnn1-c1ccccc1	inconclusive: 18.5% [at 46 µM]	
Cc1ccc(Cn2c(=O)n(-c3ccc(C)cc3)c(=O)c3c2c2cc(C)ccc2n3C)cc1	inconclusive: 6.27% [at 46 µM]	
COC(=O)CSc1nc2c(c(-c3ccc(C)o3)c1C#N)CCCC2	inactive	
CCOc1ccc(/C=C2\SC(=O)N(CCNC(=O)C3COc4ccccc4O3)C2=O)cc1OC (stereo unspecified)		inconclusive: 35.5 µM [fluorescent, single point]
Oc1ccccc1Oc1ncc(Br)c(N2CCOCC2)n1	inconclusive: 5.49%	
O=C(N1CCN(c2ccccn2)CC1)C(Cl)(Cl)Cl	inconclusive: -21%	
CC(C)(C)C(=O)NC(=S)NNC(=O)c1ccc(-c2ccccc2)cc1	inconclusive: -30% [at 46 µM]	
O=C(NCc1cccc(Cl)c1)c1ccco1	inactive	
O=C(COc1ccccc1)NCc1ccccc1	inactive	

SMILES	ratio change, negative = inhibition	Potency
COc1cc(/C=N/NC(=O)c2cc3ccccc3cc2O)ccc1OCCN1CCCCC1	inconclusive: 0.365%	
CC1=NN(c2nc(-c3ccc(C)cc3)cs2)C(=O)C1N=Nc1ccccc1O (stereo unspecified)	inconclusive: -62.8% [at 46 µM]	
COc1ccc(/C=C/C(=O)N(c2ccccn2)C2CCCCC2)cc1OC	inconclusive: -10.3% [at 46 µM]	
NC(=O)CC[C@@H]1NC(=O)[C@H](Cc2ccccc2)NC(=O)[C@H](Cc2ccc(O)cc2)NC(=O)[C@@H](N)CSSC[C@@H](C(=O)N2CCC[C@H]2C(=O)N[C@@H](CCCN=C(N)N)C(=O)NCC(N)=O)NC(=O)[C@H](CC(N)=O)NC1=O	inconclusive: 5.92%	
O=C(NCC1CCN(c2ccc(S(=O)(=O)N3CCOCC3)cc2)CC1)c1ccc(Cl)cc1		inconclusive: 11.2 µM [fluorescent, single point]
Cc1cc(/C=N\NC(=O)CC(=O)NC2CCCCC2)c(C)n1-c1ccc(Cl)cc1	inactive	
Cc1ccc(Cl)cc1N1CCN(C(=O)Cn2c(-c3cccs3)cc3cc(F)ccc32)CC1	inactive	
CCn1c(=O)cc(C(=O)OC)sc1=Nc1ccc(F)c(F)c1		inconclusive: 35.5 µM [cytotoxic, single point]
Cc1ccc(-c2nc(SCC(=O)NCC3CCCO3)c3c(=O)n(C)c(=O)n(C)c3n2)cc1 (stereo unspecified)	inactive	
Oc1c(C(c2ccccc2F)N2CCN(c3ccccc3F)CC2)sc2nc(-c3ccco3)nn12 (stereo unspecified)	inactive	
C=CCOC(=O)C1C(=O)CC(C)(O)C(C(=O)OCC=C)C1c1ccc(OCC)cc1 (stereo unspecified)	inactive	
NS(=O)(=O)c1ccc(S(=O)(=O)NCCc2ccccc2)cc1	inconclusive: 9.21%	
Cc1ccc(C(=O)NC(=S)NNS(=O)(=O)c2ccccc2)cc1	inconclusive: 55.4% [at 46 µM]	
CCn1nc(C)c(/C=N/NC(=S)Nc2ccc(Cl)cc2Cl)c1C	inconclusive: 6.72%	
CCc1ccc(NC(=S)Nc2cccc3cnccc23)cc1	inactive: -7.85% [at 9.22 µM]	
CCOc1ccc(NC(=O)c2cnn3c2NC(c2cccc(OC)c2)=CC3c2ccccc2)cc1 (stereo unspecified)	inconclusive: 24% [at 46 µM]	
O=c1c(S(=O)(=O)c2ccccc2)cn(Cc2cccc(F)c2)c2cc(N3CCOCC3)c(F)cc12	inactive	
O=C(O)COCc1nc2ccccc2[nH]1	inactive	
Cn1nc(C(F)(F)F)c(/C=N/OC(=O)c2ccccc2Cl)c1SCc1ccccc1Cl		inconclusive: 35.5 µM [falling, single point]
CCc1ccc(S(=O)(=O)c2cn(C)c3cc(N4CCC(C)CC4)c(F)cc3c2=O)cc1	inconclusive: 6.16% [at 46 µM]	

3 structures out of the list, sorted by count of non-hydrogen atoms, largest number first:
SMILES	ratio change, negative = inhibition	Potency
O=c1c(S(=O)(=O)c2ccccc2)cn(Cc2cccc(F)c2)c2cc(N3CCOCC3)c(F)cc12	inactive	
Cc1ccc(-c2nc(SCC(=O)NCC3CCCO3)c3c(=O)n(C)c(=O)n(C)c3n2)cc1 (stereo unspecified)	inactive	
COc1ccc(/C=C/C(=O)N(c2ccccn2)C2CCCCC2)cc1OC	inconclusive: -10.3% [at 46 µM]	
